Results are given in words; binding and its absence hold for the method and conditions named. Binding seen in cells or lysates may run through a third protein. Some entries that bind do so weakly or less than the wild type. Tags and fused reporters may be left off the sequences shown.
Molecular target: T1, VDAC3 (voltage-dependent anion channels 3) (human (endogenous in HGC-27)) (UniProt Q9Y277)
T1 sequence: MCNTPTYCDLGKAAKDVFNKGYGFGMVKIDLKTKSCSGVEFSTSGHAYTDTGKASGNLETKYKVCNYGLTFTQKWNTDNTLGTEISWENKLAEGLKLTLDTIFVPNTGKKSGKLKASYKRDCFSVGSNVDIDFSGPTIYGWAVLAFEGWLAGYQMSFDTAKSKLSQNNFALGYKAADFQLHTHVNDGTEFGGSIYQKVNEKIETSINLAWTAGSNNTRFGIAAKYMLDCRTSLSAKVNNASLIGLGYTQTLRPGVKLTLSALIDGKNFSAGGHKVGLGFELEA
Assay: co-IP; HGC-27 cells; immunoprecipitates of VDAC3 and input (20%) separated by SDS-PAGE, western blotting for FBXW7 and VDAC3; Co-IP kit (Abison Biotechnology)

The chains behind the UniProt entries cited, without tags or fusion partners.
UniProt Q969H0: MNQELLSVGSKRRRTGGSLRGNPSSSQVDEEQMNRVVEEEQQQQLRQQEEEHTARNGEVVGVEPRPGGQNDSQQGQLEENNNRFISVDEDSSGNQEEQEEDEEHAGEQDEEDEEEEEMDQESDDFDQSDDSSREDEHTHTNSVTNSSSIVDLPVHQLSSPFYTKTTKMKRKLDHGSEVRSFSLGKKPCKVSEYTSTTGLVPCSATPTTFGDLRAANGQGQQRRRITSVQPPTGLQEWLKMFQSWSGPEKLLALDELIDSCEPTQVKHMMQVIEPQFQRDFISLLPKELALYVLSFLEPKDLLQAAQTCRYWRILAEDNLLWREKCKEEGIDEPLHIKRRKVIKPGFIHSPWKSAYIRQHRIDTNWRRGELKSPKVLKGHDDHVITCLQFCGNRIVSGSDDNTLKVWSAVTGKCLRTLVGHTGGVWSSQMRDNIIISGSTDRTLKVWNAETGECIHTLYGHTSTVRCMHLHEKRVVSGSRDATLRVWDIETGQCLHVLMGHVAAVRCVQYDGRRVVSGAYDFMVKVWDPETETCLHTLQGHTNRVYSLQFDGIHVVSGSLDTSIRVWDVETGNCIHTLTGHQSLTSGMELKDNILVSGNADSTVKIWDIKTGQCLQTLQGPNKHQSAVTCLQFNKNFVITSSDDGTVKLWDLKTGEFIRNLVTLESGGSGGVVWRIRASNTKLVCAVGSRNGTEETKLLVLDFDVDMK

binding: binds
Substance: FBXW7 (from UniProt Q969H0 1-707)
